Publication PMC8505397, “Development of peptides targeting receptor binding site of the envelope glycoprotein to contain the West Nile virus infection” (Scientific Reports, 2021)

Each binder was assayed against recombinant domain III (DIII) of the envelope (E) glycoprotein of West Nile virus (West Nile virus) (assay: ELISA; semi-quantitative phage ELISA of individual amplified, PEG/NaCl-purified phage clones with rDIII; negative controls with rDIII omitted; details in Supplementary Method S4; both purified).
With CTNANHYFC (disulfide bond between the two cysteine residues (cyclic form on pIII)) [phage clone CC7 carrying 7-mer cyclic peptide …] the binding was “binds”. CTYENHRTC (disulfide bond between the two cysteine residues (cyclic form on pIII)) [phage clone CC12 carrying 7-mer cyclic peptide …] was tested, and the binding was “binds”. CLAQSHPLC (disulfide bond between the two cysteine residues (cyclic form on pIII)) [phage clone CC16 carrying 7-mer cyclic peptide …] was tested, and the binding was “binds”.

No constants are given. Whether binding was seen depends on the method and setting. A result given as binding can be weak or reduced; the word gives no strength.
